Test results: publication PMC7181796
Changes are numbered by the printed parent chain. Names and notes keep the numbering of the source. No constants are given. Whether binding was seen depends on the method and setting. In cells and extracts the contact can be indirect. Some results given as binding are weak or reduced against the parent protein; the word gives no strength. One block for each binder: values may come before it.

How the values were obtained:
F-BAK^G51C (human) = F-BAK^G51C (human) (UniProt Q16611); test: cross-linking; oxidant (CuPhe)-induced disulfide (cysteine) linkage on membrane fractions of MEF after activation (7D10 with co-expressed BAK, 3C10 or cBID); non-reducing blots
[1] = molecular target: T1, wild-type human BAK (human) (UniProt Q16611); test: as above
T1 sequence: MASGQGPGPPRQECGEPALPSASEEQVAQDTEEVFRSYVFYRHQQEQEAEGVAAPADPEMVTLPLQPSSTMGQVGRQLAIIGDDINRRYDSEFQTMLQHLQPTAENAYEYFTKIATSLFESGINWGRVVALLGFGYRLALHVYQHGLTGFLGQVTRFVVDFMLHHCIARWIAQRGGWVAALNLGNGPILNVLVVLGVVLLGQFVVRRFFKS

[2] = molecular target: T1, wild-type human BAK (human); test: co-IP; membrane fractions of MEF incubated with 7D10 antibody (0.1 mg/ml, 30 min, 30 °C) to activate BAK, solubilized with 1% w/v digitonin, 7D10 captured on Protein G sepharose, blotted for FLAG, BAK or BAX
[3] = molecular target: T1, wild-type human BAK (human); test: condition: only 3C10 treatment with co-expressed BAX-S184L (BAK not activated); cross-linking; oxidant (CuPhe)-induced disulfide linkage on membrane fractions of MEF co-expressing BAK and BAX-S184L, treated with 3C10 (BAX-S184L activated, BAK not activated)
[4] = molecular target: T2, wild-type human BAK (human), Q16611; test: cross-linking; oxidant (CuPhe)-induced disulfide (cysteine) linkage on membrane fractions of MEF after activation (7D10 with co-expressed BAK, 3C10 or cBID); non-reducing blots; details: remark: other sources report otherwise
T2 chain: T1 sequence

binding (F-BAK^G51C (human)): binds
binding [1]: binds
binding [2]: binds
B1: F-BAK^G51C (protein, UniProt Q16611 1-211)
chain: T1 sequence with G51C

binding [3]: no binding
B2: wild-type human BAK (protein, UniProt Q16611 1-211)
chain: T1 sequence

binding [4]: binds
B3: wild-type human BAK, Q16611 1-211 (protein)
chain: T1 sequence
